Reference: PubChem BioAssay AID1259308 (NCATS, 2017)

- Aim: 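Genes whose loss raises luciferase production in HEK293 cells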 (primary screen)
- System: human HEK293 embryonic kidney cells stably expressing firefly luciferase (HEK-CMV-Luc2-Hygro)
- Reagent: single siRNA against human genes, 0.8 pmol siRNA per well
- Time to read-out: 72 h
- Read-out: 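Luciferase light (ONE-Glo) measured on one replicate plate set and viability (CellTiter-Glo) on the other, scaled to a negative control siRNA, with robust z-scores and luciferase per cell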
- Reading the numbers: total luciferase, z-score and total luciferase, % of control: higher = more reporter protein produced
- Active means: 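An siRNA counts as active if its total luciferase robust z-score exceeds 3; genes with two or more such siRNAs out of three were retested with fresh siRNAs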
- Calls: active = raised luciferase; inactive = no rise
Shown is one part, drawn at random, of about 59,000 reagents. About 1,510 of them (2.6%) count as active. 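Calls use total luciferase alone and ignore viability, so some active siRNAs may act by altering cell number.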 A number with no mark means an inactive call. Not all columns of the deposit are shown.

What is on record for ANKRD60 (ankyrin repeat domain 60) [SID160757869]?
total luciferase, z-score: -1.72; total luciferase, % of control: 47.7

How did the screen score ANKRD60 (ankyrin repeat domain 60) [SID160757870]?
total luciferase, z-score: 0.237; total luciferase, % of control: 86.6

With ANKRD60 (ankyrin repeat domain 60) [SID160757871], how do the results read?
total luciferase, z-score: 0.199; total luciferase, % of control: 85.8

For CEP164 (centrosomal protein 164) [SID160732916], what does the deposit list?
total luciferase, z-score: -1.02; total luciferase, % of control: 61.7

For CEP164 (centrosomal protein 164) [SID160732926], how do the results read?
total luciferase, z-score: 0.968; total luciferase, % of control: 101

What is on record for CEP164 (centrosomal protein 164) [SID160732937]?
total luciferase, z-score: 1.09; total luciferase, % of control: 104

What did the screen give for FBLN7 (fibulin 7) [SID160756894]?
total luciferase, z-score: -0.69; total luciferase, % of control: 68.2

What is on record for FBLN7 (fibulin 7) [SID160756895]?
total luciferase, z-score: 1.81; total luciferase, % of control: 118

With FBLN7 (fibulin 7) [SID160756896], how do the results read?
total luciferase, z-score: 0.114; total luciferase, % of control: 84.1

What is on record for PEBP4 (phosphatidylethanolamine binding protein 4) [SID160759510]?
total luciferase, z-score: -1.03; total luciferase, % of control: 61.4

Which result is listed for PEBP4 (phosphatidylethanolamine binding protein 4) [SID160759511]?
total luciferase, z-score: 1.28; total luciferase, % of control: 107

Which result is listed for PEBP4 (phosphatidylethanolamine binding protein 4) [SID160759512]?
total luciferase, z-score: -0.646; total luciferase, % of control: 69

What did the screen give for FCRL6 (Fc receptor like 6) [SID160764711]?
total luciferase, z-score: -0.804; total luciferase, % of control: 65.9

Which result is listed for FCRL6 (Fc receptor like 6) [SID160764712]?
total luciferase, z-score: -1.05; total luciferase, % of control: 61.1

How did the screen score FCRL6 (Fc receptor like 6) [SID160764713]?
total luciferase, z-score: -0.551; total luciferase, % of control: 70.9

For FHL3 (four and a half LIM domains 3) [SID160730803], how do the results read?
total luciferase, z-score: -0.394; total luciferase, % of control: 74.1

What did the screen give for FHL3 (four and a half LIM domains 3) [SID160765729]?
total luciferase, z-score: 2.31; total luciferase, % of control: 128

For FHL3 (four and a half LIM domains 3) [SID160765738], what does the deposit list?
total luciferase, z-score: 0.753; total luciferase, % of control: 96.9

What did the screen give for SMAD1 (SMAD family member 1) [SID160776848]?
total luciferase, z-score: 0.196; total luciferase, % of control: 85.8

With SMAD1 (SMAD family member 1) [SID160776849], what does the deposit list?
total luciferase, z-score: -1.66; total luciferase, % of control: 48.9

Which result is listed for SMAD1 (SMAD family member 1) [SID160776850]?
total luciferase, z-score: 1.25; total luciferase, % of control: 107
